Assay results from the supplement of paper PMC10849652.
The other results are listed elsewhere or left out.

By UniProt entry, the sequences of proteins in these tests, tags left out. Where a name states a change or a piece, a line headed by the entry shows the natural chain unless it says otherwise.
UniProt Q8TF74: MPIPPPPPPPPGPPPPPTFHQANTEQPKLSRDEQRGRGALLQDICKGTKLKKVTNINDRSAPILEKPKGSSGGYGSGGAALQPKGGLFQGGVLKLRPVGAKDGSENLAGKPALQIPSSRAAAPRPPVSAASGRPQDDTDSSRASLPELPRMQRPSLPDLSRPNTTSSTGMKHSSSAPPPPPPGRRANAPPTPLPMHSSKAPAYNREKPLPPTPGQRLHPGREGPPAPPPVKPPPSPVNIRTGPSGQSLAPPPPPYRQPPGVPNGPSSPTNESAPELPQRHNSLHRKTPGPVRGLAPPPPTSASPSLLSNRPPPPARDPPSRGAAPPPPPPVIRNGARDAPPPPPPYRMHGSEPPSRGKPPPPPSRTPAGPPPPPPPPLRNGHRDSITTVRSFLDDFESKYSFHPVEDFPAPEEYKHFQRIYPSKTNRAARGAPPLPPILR
UniProt Q9H1Z4: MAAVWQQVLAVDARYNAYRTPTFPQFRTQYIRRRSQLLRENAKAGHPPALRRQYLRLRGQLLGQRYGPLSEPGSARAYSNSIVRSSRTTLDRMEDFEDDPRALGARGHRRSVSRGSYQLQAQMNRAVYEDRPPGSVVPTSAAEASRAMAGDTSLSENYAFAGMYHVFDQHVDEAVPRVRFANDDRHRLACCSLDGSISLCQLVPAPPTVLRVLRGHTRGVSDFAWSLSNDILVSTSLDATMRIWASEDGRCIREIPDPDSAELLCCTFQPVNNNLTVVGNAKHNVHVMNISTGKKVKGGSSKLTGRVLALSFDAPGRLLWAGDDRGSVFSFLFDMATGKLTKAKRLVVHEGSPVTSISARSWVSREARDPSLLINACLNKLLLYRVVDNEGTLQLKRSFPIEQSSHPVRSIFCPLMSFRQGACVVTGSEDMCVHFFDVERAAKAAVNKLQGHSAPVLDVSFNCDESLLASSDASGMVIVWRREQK
UniProt Q6VEQ5: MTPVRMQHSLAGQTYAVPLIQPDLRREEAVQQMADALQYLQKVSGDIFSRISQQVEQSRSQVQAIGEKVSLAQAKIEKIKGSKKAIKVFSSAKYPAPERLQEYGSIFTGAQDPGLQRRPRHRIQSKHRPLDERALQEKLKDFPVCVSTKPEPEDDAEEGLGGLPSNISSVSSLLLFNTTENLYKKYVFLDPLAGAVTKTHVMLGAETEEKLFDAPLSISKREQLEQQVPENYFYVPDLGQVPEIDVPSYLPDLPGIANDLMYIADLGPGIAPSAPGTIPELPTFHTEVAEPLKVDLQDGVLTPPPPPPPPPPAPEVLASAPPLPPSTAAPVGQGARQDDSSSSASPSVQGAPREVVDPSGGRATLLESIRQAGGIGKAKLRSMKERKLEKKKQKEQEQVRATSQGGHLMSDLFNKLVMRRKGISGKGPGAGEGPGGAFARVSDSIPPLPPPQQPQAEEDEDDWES
UniProt Q9NW82: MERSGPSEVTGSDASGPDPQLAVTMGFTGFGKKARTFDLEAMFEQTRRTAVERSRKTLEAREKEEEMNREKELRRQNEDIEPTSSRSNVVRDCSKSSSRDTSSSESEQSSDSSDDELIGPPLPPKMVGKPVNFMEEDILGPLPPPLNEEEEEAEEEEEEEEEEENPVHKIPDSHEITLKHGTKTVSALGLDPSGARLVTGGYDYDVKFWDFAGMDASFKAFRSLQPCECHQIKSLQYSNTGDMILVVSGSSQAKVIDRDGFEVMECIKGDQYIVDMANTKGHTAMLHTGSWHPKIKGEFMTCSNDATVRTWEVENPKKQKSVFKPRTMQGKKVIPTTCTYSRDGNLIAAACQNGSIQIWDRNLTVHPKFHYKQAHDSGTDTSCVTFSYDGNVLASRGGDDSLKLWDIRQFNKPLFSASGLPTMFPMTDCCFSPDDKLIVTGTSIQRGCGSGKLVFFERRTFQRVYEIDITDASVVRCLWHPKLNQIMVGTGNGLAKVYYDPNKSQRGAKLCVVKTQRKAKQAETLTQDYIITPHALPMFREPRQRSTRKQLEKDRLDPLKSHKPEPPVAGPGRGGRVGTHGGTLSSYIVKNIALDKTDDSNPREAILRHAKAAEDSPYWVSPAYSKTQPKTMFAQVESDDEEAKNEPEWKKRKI
UniProt O94967: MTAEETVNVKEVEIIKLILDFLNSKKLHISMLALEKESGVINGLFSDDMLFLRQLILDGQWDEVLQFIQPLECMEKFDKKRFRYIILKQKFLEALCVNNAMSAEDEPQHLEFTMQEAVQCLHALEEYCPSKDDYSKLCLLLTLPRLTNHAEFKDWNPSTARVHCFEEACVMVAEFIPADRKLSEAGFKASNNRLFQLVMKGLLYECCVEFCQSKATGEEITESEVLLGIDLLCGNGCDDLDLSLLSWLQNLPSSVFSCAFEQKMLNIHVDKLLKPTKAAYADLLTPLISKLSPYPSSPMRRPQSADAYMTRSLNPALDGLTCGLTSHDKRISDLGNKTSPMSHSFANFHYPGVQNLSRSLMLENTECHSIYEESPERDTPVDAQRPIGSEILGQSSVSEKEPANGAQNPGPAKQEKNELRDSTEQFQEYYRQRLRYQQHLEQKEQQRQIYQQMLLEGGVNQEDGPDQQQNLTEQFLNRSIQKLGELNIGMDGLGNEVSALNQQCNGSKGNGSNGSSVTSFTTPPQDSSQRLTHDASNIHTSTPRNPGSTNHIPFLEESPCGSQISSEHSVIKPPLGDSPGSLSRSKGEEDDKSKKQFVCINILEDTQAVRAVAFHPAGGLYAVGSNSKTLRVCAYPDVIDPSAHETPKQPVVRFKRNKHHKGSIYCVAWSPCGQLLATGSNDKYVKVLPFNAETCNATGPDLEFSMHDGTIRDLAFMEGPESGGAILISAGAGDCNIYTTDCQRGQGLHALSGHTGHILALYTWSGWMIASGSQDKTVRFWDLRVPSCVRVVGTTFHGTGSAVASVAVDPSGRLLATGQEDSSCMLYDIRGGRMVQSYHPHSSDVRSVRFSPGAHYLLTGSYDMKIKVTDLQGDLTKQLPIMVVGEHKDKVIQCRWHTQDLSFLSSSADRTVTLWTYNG
UniProt Q9UID3: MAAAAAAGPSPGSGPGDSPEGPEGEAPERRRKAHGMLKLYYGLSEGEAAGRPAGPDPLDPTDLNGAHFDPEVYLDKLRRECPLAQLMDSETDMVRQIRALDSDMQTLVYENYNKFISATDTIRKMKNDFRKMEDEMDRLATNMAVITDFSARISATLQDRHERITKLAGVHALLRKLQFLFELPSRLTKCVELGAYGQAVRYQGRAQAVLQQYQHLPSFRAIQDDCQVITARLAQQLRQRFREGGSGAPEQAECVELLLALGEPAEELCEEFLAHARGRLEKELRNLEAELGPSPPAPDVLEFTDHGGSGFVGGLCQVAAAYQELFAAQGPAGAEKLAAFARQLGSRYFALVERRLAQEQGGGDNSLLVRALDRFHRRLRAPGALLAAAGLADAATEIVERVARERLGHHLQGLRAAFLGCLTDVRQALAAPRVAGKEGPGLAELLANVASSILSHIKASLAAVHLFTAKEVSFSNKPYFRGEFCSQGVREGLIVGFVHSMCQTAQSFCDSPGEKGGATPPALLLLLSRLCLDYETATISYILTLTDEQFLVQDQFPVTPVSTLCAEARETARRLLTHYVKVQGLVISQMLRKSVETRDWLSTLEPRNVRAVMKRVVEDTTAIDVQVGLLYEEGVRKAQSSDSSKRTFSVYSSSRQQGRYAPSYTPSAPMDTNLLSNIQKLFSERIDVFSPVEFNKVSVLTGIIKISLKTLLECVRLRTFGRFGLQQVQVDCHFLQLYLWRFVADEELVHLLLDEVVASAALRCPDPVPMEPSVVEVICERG
UniProt Q69YN4: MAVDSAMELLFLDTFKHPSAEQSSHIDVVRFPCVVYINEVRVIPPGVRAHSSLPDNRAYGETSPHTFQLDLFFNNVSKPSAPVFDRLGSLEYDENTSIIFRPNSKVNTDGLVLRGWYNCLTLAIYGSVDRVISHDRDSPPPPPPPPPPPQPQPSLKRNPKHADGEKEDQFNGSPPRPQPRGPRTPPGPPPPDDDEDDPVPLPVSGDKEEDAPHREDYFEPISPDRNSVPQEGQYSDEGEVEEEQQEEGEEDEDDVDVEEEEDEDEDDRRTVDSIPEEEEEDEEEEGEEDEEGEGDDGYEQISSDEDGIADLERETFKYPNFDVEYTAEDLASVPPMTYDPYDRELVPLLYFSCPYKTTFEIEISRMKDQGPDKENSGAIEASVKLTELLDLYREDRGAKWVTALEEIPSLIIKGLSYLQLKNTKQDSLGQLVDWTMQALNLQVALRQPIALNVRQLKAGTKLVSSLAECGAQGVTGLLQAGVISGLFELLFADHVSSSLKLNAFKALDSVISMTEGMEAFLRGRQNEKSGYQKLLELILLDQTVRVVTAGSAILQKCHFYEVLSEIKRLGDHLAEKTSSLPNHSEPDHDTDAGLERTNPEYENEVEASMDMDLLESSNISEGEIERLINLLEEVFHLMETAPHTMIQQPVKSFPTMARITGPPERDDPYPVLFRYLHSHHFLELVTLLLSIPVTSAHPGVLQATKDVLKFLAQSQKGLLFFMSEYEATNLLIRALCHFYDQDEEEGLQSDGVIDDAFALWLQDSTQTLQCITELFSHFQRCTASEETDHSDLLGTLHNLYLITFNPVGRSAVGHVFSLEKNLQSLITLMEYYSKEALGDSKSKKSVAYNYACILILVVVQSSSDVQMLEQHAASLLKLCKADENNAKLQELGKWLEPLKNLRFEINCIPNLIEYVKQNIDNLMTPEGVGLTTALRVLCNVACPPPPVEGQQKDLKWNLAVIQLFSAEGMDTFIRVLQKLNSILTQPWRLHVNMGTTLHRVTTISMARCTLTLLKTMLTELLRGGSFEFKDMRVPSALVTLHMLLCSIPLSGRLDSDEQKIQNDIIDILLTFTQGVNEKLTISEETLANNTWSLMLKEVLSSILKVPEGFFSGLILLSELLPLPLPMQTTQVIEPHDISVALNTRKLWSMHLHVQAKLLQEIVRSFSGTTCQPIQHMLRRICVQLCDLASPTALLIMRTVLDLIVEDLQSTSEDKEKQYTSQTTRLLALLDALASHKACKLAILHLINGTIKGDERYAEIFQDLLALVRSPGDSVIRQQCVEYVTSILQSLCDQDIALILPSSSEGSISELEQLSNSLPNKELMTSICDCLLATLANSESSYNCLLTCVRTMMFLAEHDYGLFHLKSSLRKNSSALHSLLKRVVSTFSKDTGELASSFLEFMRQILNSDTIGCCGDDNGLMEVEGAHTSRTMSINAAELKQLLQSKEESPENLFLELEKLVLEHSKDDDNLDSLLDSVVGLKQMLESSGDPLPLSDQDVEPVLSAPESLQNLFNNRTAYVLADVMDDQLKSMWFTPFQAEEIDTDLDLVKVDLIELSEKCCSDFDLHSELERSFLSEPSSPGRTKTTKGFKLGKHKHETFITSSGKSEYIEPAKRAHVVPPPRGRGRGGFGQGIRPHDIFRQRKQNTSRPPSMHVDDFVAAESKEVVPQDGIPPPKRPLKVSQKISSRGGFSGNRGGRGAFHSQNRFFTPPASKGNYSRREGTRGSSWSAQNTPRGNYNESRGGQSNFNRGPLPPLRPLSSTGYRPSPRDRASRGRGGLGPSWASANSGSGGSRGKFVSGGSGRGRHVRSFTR
UniProt Q8IV63: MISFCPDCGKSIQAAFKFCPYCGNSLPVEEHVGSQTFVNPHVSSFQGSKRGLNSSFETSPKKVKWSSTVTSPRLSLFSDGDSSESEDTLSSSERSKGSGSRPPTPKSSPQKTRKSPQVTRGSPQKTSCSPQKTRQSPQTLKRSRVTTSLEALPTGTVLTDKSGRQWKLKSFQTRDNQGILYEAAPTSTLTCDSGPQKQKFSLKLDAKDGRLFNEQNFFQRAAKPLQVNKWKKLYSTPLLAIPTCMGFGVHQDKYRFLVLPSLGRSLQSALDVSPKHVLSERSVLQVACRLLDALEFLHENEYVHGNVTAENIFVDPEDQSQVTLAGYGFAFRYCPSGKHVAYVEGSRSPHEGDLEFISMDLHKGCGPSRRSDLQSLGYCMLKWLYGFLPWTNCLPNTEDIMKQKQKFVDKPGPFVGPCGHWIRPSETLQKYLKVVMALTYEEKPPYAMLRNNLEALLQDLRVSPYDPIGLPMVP
UniProt O75351, whole entry, looked up: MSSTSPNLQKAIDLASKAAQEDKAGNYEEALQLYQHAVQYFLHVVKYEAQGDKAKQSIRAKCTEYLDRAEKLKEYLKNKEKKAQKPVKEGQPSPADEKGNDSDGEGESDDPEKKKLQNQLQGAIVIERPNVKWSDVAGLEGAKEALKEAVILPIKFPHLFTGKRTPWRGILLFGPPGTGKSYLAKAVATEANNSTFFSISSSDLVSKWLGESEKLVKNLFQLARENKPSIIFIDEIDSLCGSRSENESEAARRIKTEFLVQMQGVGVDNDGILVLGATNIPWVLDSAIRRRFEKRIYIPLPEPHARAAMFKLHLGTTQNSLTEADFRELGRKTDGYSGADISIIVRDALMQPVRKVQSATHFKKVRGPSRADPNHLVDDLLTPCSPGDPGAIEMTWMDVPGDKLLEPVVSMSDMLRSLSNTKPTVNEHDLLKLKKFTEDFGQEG
UniProt Q3ZAQ7: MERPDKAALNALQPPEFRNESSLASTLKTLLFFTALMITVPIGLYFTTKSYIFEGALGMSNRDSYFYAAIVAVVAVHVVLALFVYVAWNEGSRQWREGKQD

Compound: C1=CC=C(C=C1)[C@H](COC2=CC3=C(C=C2)NC(=O)N3)NC(=O)C4=CC=CN(C4=O)CC5=CC(=C(C=C5)F)F
Test: log2 fold change, soluble protein after heating vs DMSO (PISA); higher = thermal stabilisation; K562 lysate, 10 uM; active = over 0.2 and 3.5 SD of the protein, either way, in both replicates (recomputed)
Outline: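 Values give the log-two fold change in thermal stability against solvent controls, from duplicates. Crude K562 extract at 1 mg/mL protein, made by dounce homogenisation in PBS pH 7.4 with 1 mM MgCl2, was treated with 10 μM compound for 30 min. After 3 min heating across 48°C-58°C, aliquots were pooled, adjusted to 0.5% NP-40 at 4°C and centrifuged at 21,000xg for 90 min. The supernatant was measured by TMTpro 16plex LC-MS/MS with channel sums equalised.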

Target | log2 fold change
VPS28 (UniProt Q9UK41) | inactive: -0.087
VPS35 (UniProt Q96QK1) | inactive: 0.012
VPS13A (UniProt Q96RL7) | inactive: -0.056
WIPF2 (UniProt Q8TF74) | inactive: 0.037
WDR24 (UniProt Q96S15) | inactive: -0.066
VPS26B (UniProt Q4G0F5) | inactive: 0.034
WDR13 (UniProt Q9H1Z4) | inactive: -0.009
VPS8 (UniProt Q8N3P4) | inactive: -0.046
WDTC1 (UniProt Q8N5D0) | inactive: -0.004
WNK1 isoform 7 (UniProt Q9H4A3) | inactive: -0.016
WASH2P (UniProt Q6VEQ5) | inactive: -0.004
WDR70 (UniProt Q9NW82) | inactive: 0.046
WDR47 (UniProt O94967) | inactive: 0.069
VPS45 (UniProt Q9NRW7) | inactive: 0.052
WDR7 (UniProt Q9Y4E6) | inactive: 0.055
VKORC1L1, A0A3B3ISV4 | inactive: -0.066
WDR75 (UniProt Q8IWA0) | inactive: 0.029
WARS (UniProt P23381) | inactive: 0.041
VPS51 (UniProt Q9UID3) | inactive: -0.021
VIRMA (UniProt Q69YN4) | inactive: -0.055
VRK3 (UniProt Q8IV63) | inactive: 0.05
VPS4B (UniProt O75351) | inactive: 0.019
VMA21 (UniProt Q3ZAQ7) | inactive: 0
WDR5 (UniProt P61964) | inactive: 0.031

No new results follow: an excerpt of the list.
Target | log2 fold change
WDR13 (UniProt Q9H1Z4) | inactive: -0.009
VPS8 (UniProt Q8N3P4) | inactive: -0.046
WDTC1 (UniProt Q8N5D0) | inactive: -0.004
WNK1 isoform 7 (UniProt Q9H4A3) | inactive: -0.016
WASH2P (UniProt Q6VEQ5) | inactive: -0.004
